Reference: paper PMC10365314, “Noncanonical contribution of microglial transcription factor NR4A1 to post-stroke recovery through TNF mRNA destabilization”
For at least one entry, the source does not settle the construct or the ends of the probe. The comparison behind a weaker result is the experiment's own reference, which may not be listed here. For some assays here: Results from cells or extracts need not show a direct contact.

Amino acid sequences for entries named in this document (tags omitted).
UniProt P12813, whole entry: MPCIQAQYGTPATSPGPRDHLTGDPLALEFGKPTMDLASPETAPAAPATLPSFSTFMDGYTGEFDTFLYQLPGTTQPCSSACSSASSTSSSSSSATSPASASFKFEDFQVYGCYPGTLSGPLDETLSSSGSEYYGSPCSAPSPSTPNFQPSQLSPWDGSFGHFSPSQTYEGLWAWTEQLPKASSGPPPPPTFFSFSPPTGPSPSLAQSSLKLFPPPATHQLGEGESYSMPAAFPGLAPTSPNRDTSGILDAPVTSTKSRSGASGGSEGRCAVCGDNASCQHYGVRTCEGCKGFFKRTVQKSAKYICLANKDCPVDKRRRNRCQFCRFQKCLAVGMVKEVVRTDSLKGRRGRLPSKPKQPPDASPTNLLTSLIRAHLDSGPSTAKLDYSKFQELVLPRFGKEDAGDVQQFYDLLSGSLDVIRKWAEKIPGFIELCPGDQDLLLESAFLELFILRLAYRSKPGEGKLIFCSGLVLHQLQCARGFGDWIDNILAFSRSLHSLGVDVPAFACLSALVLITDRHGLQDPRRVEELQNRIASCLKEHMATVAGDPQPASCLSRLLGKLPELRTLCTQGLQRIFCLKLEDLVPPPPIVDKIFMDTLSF

Experiments:
[1] = target: NR4A1 (endogenous) (Mus musculus) (UniProt P12813); assay: pull-down; details: pull-down: 50 pmol probe, 250 ug extract, 4 C 3 h, protein in an extract
[2] = target: His-GST-NR4A1 (Mus musculus) (UniProt P12813); assay: EMSA; details: glutaraldehyde 0.2% added after binding; 10 mM HEPES pH 7.6, 50 mM KCl, 1 mM EDTA, 0.05% Triton X-100, 5% glycerol, 1 mM DTT, 40 U/ml RNasin; REMSA: 2 nM probe, room temperature 30 min; recombinant protein; protein details: His-GST; label: 5' biotin

Sequence: CGUCUCAGACACAGACAGCU [AGACA probe, unmethylated]
- binding result ([1]; label: 5' biotin): binds more weakly

Sequence: CGUCUCGGACUCGGACUGCU [GGACU probe, m6A]
- binding result ([1]; m6A at positions 9 and 15 (as printed: CGUCUCGG(m6A)CUCGG(m6A)CUGCU), label: 5' …): binds

Sequence: CGUCUCGGACUCGGACUGCU [GGACU probe, unmethylated]
- binding result [2]: binds more weakly
- binding result ([1]; label: 5' biotin): binds more weakly

Sequence: CGUCUCAGACACAGACAGCU [AGACA probe, m6A]
- binding result ([1]; m6A at positions 9 and 15 (as printed: CGUCUCAG(m6A)CACAG(m6A)CAGCU), label: 5' …): binds
